Laboratory results: patent US20220089752A1 (University of California, published 2022)
These are yes or no findings as the source states them, for the method shown. Some results given as binding are weak or reduced against the parent protein; the word gives no strength.

Sequences of proteins named here, by UniProt entry; tags and fusion partners are left off. A change or cut given only in a name is not applied to a line headed by its entry. Residues count along the entry.
UniProt Q03145, residues 26-535: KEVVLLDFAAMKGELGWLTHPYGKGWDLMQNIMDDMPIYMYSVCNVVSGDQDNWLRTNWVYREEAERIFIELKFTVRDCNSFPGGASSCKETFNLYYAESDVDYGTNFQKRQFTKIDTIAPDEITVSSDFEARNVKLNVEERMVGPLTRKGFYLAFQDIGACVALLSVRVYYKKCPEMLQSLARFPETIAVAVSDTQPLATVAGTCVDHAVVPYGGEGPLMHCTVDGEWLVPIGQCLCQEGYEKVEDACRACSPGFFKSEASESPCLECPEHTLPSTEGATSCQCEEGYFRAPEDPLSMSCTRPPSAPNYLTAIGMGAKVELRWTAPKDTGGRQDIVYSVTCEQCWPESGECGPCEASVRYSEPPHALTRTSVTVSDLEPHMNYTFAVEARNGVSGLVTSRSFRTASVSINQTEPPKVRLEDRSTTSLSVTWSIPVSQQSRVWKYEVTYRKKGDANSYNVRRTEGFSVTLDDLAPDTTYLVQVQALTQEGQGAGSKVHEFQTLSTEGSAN
UniProt P29317: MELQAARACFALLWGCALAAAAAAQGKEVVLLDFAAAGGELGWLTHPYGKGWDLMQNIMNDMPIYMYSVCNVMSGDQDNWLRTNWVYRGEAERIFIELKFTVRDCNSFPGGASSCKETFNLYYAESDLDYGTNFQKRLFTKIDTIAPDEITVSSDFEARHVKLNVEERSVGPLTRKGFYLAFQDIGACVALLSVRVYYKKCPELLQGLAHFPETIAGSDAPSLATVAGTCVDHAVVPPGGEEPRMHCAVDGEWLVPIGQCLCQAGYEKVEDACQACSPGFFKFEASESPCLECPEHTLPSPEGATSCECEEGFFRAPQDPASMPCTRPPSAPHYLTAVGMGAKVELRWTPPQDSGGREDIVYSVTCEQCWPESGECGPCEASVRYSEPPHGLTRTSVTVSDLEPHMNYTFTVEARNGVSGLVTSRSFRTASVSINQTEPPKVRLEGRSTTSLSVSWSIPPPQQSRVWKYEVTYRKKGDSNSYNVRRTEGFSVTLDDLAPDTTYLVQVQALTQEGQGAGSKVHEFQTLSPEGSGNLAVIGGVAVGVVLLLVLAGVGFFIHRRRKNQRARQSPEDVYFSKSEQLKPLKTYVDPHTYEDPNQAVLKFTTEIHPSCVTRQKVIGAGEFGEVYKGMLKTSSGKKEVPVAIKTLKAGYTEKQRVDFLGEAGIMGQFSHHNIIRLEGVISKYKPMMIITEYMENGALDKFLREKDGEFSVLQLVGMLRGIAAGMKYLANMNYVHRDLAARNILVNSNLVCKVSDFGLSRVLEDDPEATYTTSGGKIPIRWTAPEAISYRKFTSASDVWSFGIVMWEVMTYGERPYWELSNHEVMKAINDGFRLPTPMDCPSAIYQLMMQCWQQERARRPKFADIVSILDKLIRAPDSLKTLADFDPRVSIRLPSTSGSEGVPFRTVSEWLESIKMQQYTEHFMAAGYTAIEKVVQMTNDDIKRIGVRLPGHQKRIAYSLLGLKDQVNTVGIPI
ephrin type-A receptor 2 (EphA2) on cells: residues 24-976 of P29317

Key:
[1] = target: mouse recombinant EphA2-Fc fusion protein (mouse) (UniProt Q03145); assay: flow cytometry of yeast-displayed scFv with mouse recombinant EphA2-Fc at 0-100 nM
recombinant human EphA2 [2] = target: T1, recombinant human EphA2 (human, UniProt P29317 25-534); assay: flow cytometry of yeast-displayed scFv with recombinant human EphA2 at 0-100 nM
T1 construct: also called human recombinant EphA2 protein
Description: In this experiment, RYRgerm is the germline version of RYR. The remaining samples were RYRgerm derivatives with high binding affinity. Apparent KD values were estimated by curve-fitting of normalized MFI values. FIG. 10B: Apparent KD measurement of four new EphA2 scFvs binding affinity to mouse recombinant EphA2-Fc fusion protein. Apparent KD values were estimated by curve-fitting of normalized MFI values.
This Example describes experiments performed to identify new versions of EphA2 binding scFv antibodies with improved binding affinity. The original EphA2 binding scFv RYR has been described previously in PCT/US2015/039741, in which EphA2 binding scFv RYR was named HCA-F1 and a germline version of RYR was named RYRgerm. To identify new versions of EphA2 binding scFv antibodies improved binding affinity for EphA2, yeast display mutagenesis libraries based on RYRgerm were generated and selected by FACS for higher affinity binders. Four new EphA2 scFvs with high binding affinity for EphA2 were identified and named […], RYRgerm_102919_15, RYRgerm_102919_22, and RYRgerm_102919_33, respectively. The amino acid sequences of VH and VL regions as well as the CDRs for these newly identified EphA2 scFvs are presented in Tables 4-5 and the Sequence Listing. In these eperiments, both human and mouse recombinant EphA2 proteins were used in selection to maintain cross-species binding. Apparent affinity was measured by flow cytometry for binding to both human and mouse EphA2.

[3] = target: ephrin type-A receptor 2 (EphA2) on cells (human) (UniProt P29317); assay: FACS of RYR IgG on single cells from adherent- or sphere-cultured L3.6pl, Alexa 647 anti-human IgG
[4] = target: ephrin type-A receptor 2 (EphA2) on cells (human) (UniProt P29317); assay: FACS on DU145 cells, IgG1 for 1 h at 25 C, anti-human Alexa Fluor 647
recombinant human EphA2 [5] = target: T1, recombinant human EphA2; assay: biolayer interferometry, IgG1 loaded on anti-human Fc probes, 100 nM recombinant human EphA2, 25 C

B1: RYRgerm_102919_22 scFv (scFv)
scFv: EVQLVESGGGLVQPGGSLRLSCAASGFTFSSYSMNWVRQAPGKGLEWVSYISSSSSTIYYADSVKGRFTISRDNAKNSLYLQMNSLRAEDTAVYYCARYRLPNFWSGYPNYGMDVWGQGTTVTVSSGGGGSGGGGSGGGGSQSVLTQPPSVSGAPGQRVTISCTGSSSNIGAGYDVHWYQQLPGTAPKLLIYGNSNRPSGVPDRFSGSKSGTSASLAITGLQAEDEADYYCQSYDSSLSGHVVFGGGTKLTVL
Question: B1 was tested. Which binding [1] did it give?
Answer: binds

Question: And the binding (recombinant human EphA2 [2])?
Answer: binds

B2: RYRgerm_102919_14 scFv (scFv)
scFv: EVQLVESGGGLVQPGGSLRLSCAASGFTSSSYSMNWVRQAPGKGLEWVSYISSSSSTIYYADSVKGRFTISRDNAKNSLYLQMNSLRAEDTAVYYCARYRLPNFWSGYPNYGMDVWGQGTTVTVSSGGGGSGGGGSGGGGSQSVLTQPPSVSGAPGQRVTISCTGSSSNIGAGYDVHWYQQLPGTAPKLLIYGNSNRPSGVPDRFSGSKSGTSASLAITGLQAEDEADYYCQSYDSSLSGHVVFGGGTKLTVL
notes: also called RYRgerm_102019_14
Question: Which binding (recombinant human EphA2 [2]) does the source give for B2 here?
Answer: binds

B3: RYRgerm_102919_15 scFv (scFv)
scFv: EVQLVESGGGLVQPGGSLRLSCAASGFTFSSYSMNWVRQAPGKGLEWVSYISSSSSTIYYADSVKGRFTISRDNAKNSLYLQMNSLRAEDTAVYYCARYRLPNFWSGYPNYGTDVWGQGTTVTVSSGGGGSGGGGSGGGGSQSVLTQPPSVSGAPGQRVTISCTGSSSNIGAGYDVHWYQQLPGTAPKLLIYGNSNRPSGVPDRFSGSKSGTSASLAITGLQAEDEADYYCQSYDSSLSGHVVFGGGTKLTVL
Question: B3 was tested. Which binding (recombinant human EphA2 [2]) did it give?
Answer: binds

B4: RYRgerm_102919_33 scFv (scFv)
scFv: EVQLVESGGGLVQPGGSLRLSCAASGFTFSSYSMNWVRQAPGKGLEWVSYISSSSSTIYYADSVKGRFTISRDNAKNSLYLQMNSLRAEDTAVYYCARYRFPDFWSGYPNYGMDVWGQGTTVTVSSGGGGSGGGGSGGGGSQSVLTQPPSVSGAPGQRVTISCTGSSSNIGAGYDVHWYQQLPGTAPKLLIYGNSNRPSGVPDRFSGSKSGTSASLAITGLQAEDEADYYCQSYDSSLSGHVVFGGGTKLTVL
Question: Which results are given for B4?
Answer: binding [1]: binds; binding (recombinant human EphA2 [2]): binds

B5: RYR IgG1 (antibody, V domains shown)
VH: QVQLQESGGGLVQPGGSLRLSCAASGFTFSSYSMNWVRQAPGKGLEWVSYISSSSSTIYYADSVKGRFTISRDNAKNSLYLQMNSLRAEDTAVYYCARYRLPDFWSGYPNYGMDVWGQGTTVTVSS
VL: QSVLTQPPSVSGAPGQRVTISCTGSSSNIGAGYDVHWYQQLPGTAPKLLIYGNSNRPSGVPDRFSGSKSGTSASLAITGLQAEDEADYYCQSYDSSLSGHVVFGGGT
notes: Recombinant human IgG1 built from the original EphA2 scFv RYR; also called original RYR; HCA-F1
Question: What does the source list for B5?
Answer: binding [3]: binds; binding [4]: binds; binding (recombinant human EphA2 [5]): binds

B6: RYRgerm_102919_15 IgG1 (antibody, V domains shown)
VH: EVQLVESGGGLVQPGGSLRLSCAASGFTFSSYSMNWVRQAPGKGLEWVSYISSSSSTIYYADSVKGRFTISRDNAKNSLYLQMNSLRAEDTAVYYCARYRLPNFWSGYPNYGTDVWGQGTTVTVSS
VL: QSVLTQPPSVSGAPGQRVTISCTGSSSNIGAGYDVHWYQQLPGTAPKLLIYGNSNRPSGVPDRFSGSKSGTSASLAITGLQAEDEADYYCQSYDSSLSGHVVFGGGTKLTVL
notes: Recombinant human IgG1 built from the scFv RYRgerm_102919_15
Question: With B6 as the binder, how does the binding (recombinant human EphA2 [5]) read?
Answer: binds
